# Assay results reported in PubChem BioAssay AID2685 (National Center for Advancing Translational Sciences (NCATS), 2010).
# Some of the results follow. These are further read-outs of the screen, such as a control signal, another cell line or another target. No call is given for them. Compounds called inactive in the main read-out are mostly missing here. Potencies come from curve fits of mixed quality, noted in brackets.
# Assay: qHTS Assay for Lipid Storage Modulators in Drosophila S3 Cells;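 as to cell number change: cells counted by Cell Tracker Red CMTPX staining in the red channel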
# Details: BODIPY lipid droplet fluorescence, 18-24 h; for cell number change: measured here: cell count max response, cells fed with added oleic acid
# Procedure, shortened: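 Laser-scanning cytometry quantifies lipid droplet accumulation (500–530 nm total intensity; droplet/cell object ratio) in oleic acid-fed (400 uM added) Drosophila S3 cells treated with a concentration series. 20 uM Triacsin C defined 100% inhibition.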
# [1] = measured here: lipid fluorescence (Fed channel) AC50, cells fed with added oleic acid
# [2] = measured here: cell number channel AC50, cells fed with added oleic acid
Structure (SMILES),cell number change,AC50 [1],AC50 [2]
O=C1CCCN1CCCNc1ncnc2c1[nH]c1ccccc12,-12.7%,"7.31 µM [rising, partial curve]",–
CC(=O)Nc1sc2c(c1CN1CCN(c3ccccn3)CC1)CCCC2,1.67%,"0.366 µM [rising, partial curve, poor fit]",–
COc1cccc(C(=O)Nc2cc(NC(=O)c3ccco3)ccc2OC)c1,–,"3.26 µM [rising, partial curve]",–
Cc1ccc(OCCNC(=O)CNC(=O)c2ccc3c(c2)OCO3)cc1,14.4%,"11.6 µM [rising, partial curve]",–
NC(=O)CCSC(=S)N1CCOCC1,-7.52%,"5.17 µM [falling, single point]","0.58 µM [falling, single point]"
Cc1nn(CCCC(=O)Nc2cnn(Cc3ccc(F)cc3)c2)c(C)c1[N+](=O)[O-],–,"4.11 µM [falling, single point]",–
CCOc1ccc(-c2nnn(CCC(=O)O)n2)cc1OC,-110%,"29.1 µM [falling, partial curve]","29.1 µM [falling, single point]"
Cc1cc(C)cc(N(C)S(=O)(=O)c2nnc(NC(=O)C(C)C)s2)c1,-24.8%,"0.00461 µM [falling, full curve, poor fit]",–
Cc1cccc(C(=O)Oc2cc(C)[nH]c(=O)c2[N+](=O)[O-])c1,5.9%,"29.1 µM [rising, single point]",–
O=C(O)CCCC(=O)Nc1ccccc1C(=O)N1CCOCC1,-48.4%,"29.1 µM [falling, single point]","29.1 µM [falling, single point]"
N=C(N)c1ccc(Cl)cc1,8.42%,"0.82 µM [falling, full curve, poor fit]",–
Cc1ccc(C)c(OCC(=O)Nc2ccccc2C(=O)NC2CC2)c1,0.283%,"6.51 µM [falling, single point]",–
Cc1cccnc1NC(=O)c1ccc(S(=O)(=O)NCc2ccco2)cc1,40.6%,–,"0.0291 µM [rising, full curve]"
C[C@H]1O[C@@H](n2cc(F)c(=O)[nH]c2=O)[C@H](O)[C@@H]1O,-0.0238%,"0.164 µM [falling, full curve, poor fit]",–
O=C(NC1CCCCC1)N(Cc1cc2cc3c(cc2[nH]c1=O)OCCO3)C1CCCCC1,–,"2.59 µM [rising, partial curve]","2.91 µM [rising, partial curve]"
CCOc1ccc(CN(C)C(=O)CCNC(=O)c2ccco2)cc1,21.3%,"29.1 µM [rising, single point]",–
O=C(NNC(=O)c1ccccc1Cl)c1cccnc1,9.21%,"6.31 µM [falling, single point]",–
Cc1nc(-c2cccc(S(=O)(=O)N3CCCCCC3)c2)cs1,59.9%,–,"29.1 µM [rising, single point]"
[O-][n+]1ccc(C2CC2)cc1,-26.9%,"3.66 µM [falling, full curve]",–

# One compound at a time, from the list above. Order of values: cell number change	AC50 [1]	AC50 [2]
# Cc1nc(-c2cccc(S(=O)(=O)N3CCCCCC3)c2)cs1 in the list: 59.9%	–	29.1 µM [rising, single point]
# O=C(NC1CCCCC1)N(Cc1cc2cc3c(cc2[nH]c1=O)OCCO3)C1CCCCC1 in the list: –	2.59 µM [rising, partial curve]	2.91 µM [rising, partial curve]

# Carrying on:

Structure (SMILES),cell number change,AC50 [1],AC50 [2]
COc1cccc(N(CC(=O)NCCSc2ccccn2)S(=O)(=O)c2ccccc2)c1,-33.3%,–,"9.2 µM [falling, partial curve, poor fit]"
Cc1ccc(-n2cnn(-c3ccc([N+](=O)[O-])cc3[N+](=O)[O-])c2=O)cc1,-20.2%,"29.1 µM [falling, single point]",–
Cc1ccccc1NC(=O)c1c([N+](=O)[O-])c(C(C)(C)C)nn1C,26%,"1.84 µM [rising, full curve]",–
Cc1cc(C)n(S(=O)(=O)c2ccccc2)n1,42.4%,"16.4 µM [rising, single point]","14.6 µM [rising, single point]"
Cc1cc(C)cc(NC(=O)CCn2cnc3cc(C)c(C)cc32)c1,–,"0.461 µM [falling, single point]",–
COc1ccccc1NS(=O)(=O)c1ccc(NC(=O)c2[nH]nc(OC)c2[N+](=O)[O-])cc1,-13.9%,–,–
Cc1ccc(C(=O)O)cc1S(=O)(=O)NCC1CCCO1 (stereo not given),-47%,"18.4 µM [falling, single point]","16.4 µM [falling, partial curve]"
COc1ccc(S(=O)(=O)CCC(=O)N2CCN(c3ccc([N+](=O)[O-])cc3)CC2)cc1,13.8%,–,–
CC1(C)CC(=O)C=C(Nc2ccc3c(c2)CCC3)C1,8.55%,"0.259 µM [rising, full curve, poor fit]",–
O=C(N/N=C/c1ccc2c(c1)OCO2)c1ccc(NS(=O)(=O)c2cccs2)cc1,82.1%,"2.06 µM [rising, single point]","11.6 µM [rising, partial curve]"
COc1ccccc1OC(=O)CCc1nc2ccccc2s1,-16.6%,–,–
CCC(=O)OCCn1c(Br)nc2c1c(=O)[nH]c(=O)n2C,11.3%,"0.82 µM [rising, single point]",–
CCOc1cc(NS(=O)(=O)c2ccccc2)c(OCC)cc1NC(=O)c1ccco1,22.6%,"6.51 µM [rising, partial curve]","0.0651 µM [rising, partial curve, poor fit]"
COc1ccc(CNC(=O)C2CCN(C(=O)N(C)C)CC2)c(OC)c1,-1.17%,"20.6 µM [rising, single point]",–
Cc1cccc(CCNC(=O)CCc2nc(-c3ccccc3F)no2)c1,85.1%,"6.51 µM [rising, single point]","16.4 µM [rising, partial curve]"
CC(C)(O)C#Cc1ccc(C(=O)NCCC(=O)O)s1,-33%,"3.26 µM [falling, full curve]","0.58 µM [falling, full curve]"
Cc1ccccc1C(=O)Nc1ccc(N2CCCC2)cc1,-45.8%,"23.1 µM [falling, partial curve]","23.1 µM [falling, single point]"
COc1cc(/C=C/C(=O)NC(=O)c2ccccc2O)ccc1OC(C)=O,-29.1%,"5.8 µM [falling, single point]",–
CSc1ccc(CN2C(=O)NC3(CCCCC3)C2=O)cc1,9.86%,"0.103 µM [falling, partial curve, poor fit]",–

Structure (SMILES),cell number change,AC50 [1],AC50 [2]
CCOC(=O)CNc1nc(-c2ccncc2)nc2ccccc12,25%,"3.66 µM [rising, partial curve]","0.103 µM [rising, full curve, poor fit]"
Cc1ccc(/C=C2/NC(=O)N(c3ccccc3)C2=O)o1,-20%,"29.1 µM [falling, single point]",–
CCc1ccc(NC(=O)C2CCCN2S(=O)(=O)c2ccc3c(c2)C(C)(C)C(=O)N3C)cc1 (stereo not given),-7.78%,"2.31 µM [falling, partial curve, poor fit]",–
COc1cccc(OCCOc2ccc(/C=C3\C(=N)N4N=C(S(C)(=O)=O)SC4=NC3=O)cc2OC)c1,-31.3%,"29.1 µM [falling, single point]","29.1 µM [falling, single point]"
Nc1nc(N)c2ncc(C(=O)CCc3ccccc3)nc2n1,-27.7%,–,"0.13 µM [rising, full curve, poor fit]"
Cc1ccc(CNC(=O)c2ccc[nH]2)cc1,–,"6.51 µM [falling, single point]",–
COc1ccccc1CCC(=O)OCC(=O)N1c2ccccc2NC(=O)C1(C)C,11.6%,–,–
COc1ccc(C)cc1S(=O)(=O)Nc1ccccc1C,-4.06%,–,"0.82 µM [rising, partial curve]"
CCCC[n+]1c2ccccc2cc2ccccc21,-29.7%,"29.1 µM [falling, single point]",–
COC(=O)c1cc(NC(=O)Nc2ccccc2OC)cc(C(=O)OC)c1,67.9%,"0.13 µM [rising, full curve, poor fit]","0.259 µM [rising, full curve]"
O=[N+]([O-])c1cc(S(=O)(=O)N2CCCC2)ccc1N/N=C1/CCCc2ccccc21,-37.3%,"5.8 µM [falling, full curve]","5.8 µM [falling, full curve]"
Nc1nc(SCC(=O)NN(c2ccccc2)c2ccccc2)n[nH]1,–,"0.103 µM [rising, full curve, poor fit]",–
Cc1cccc(NC(=O)CSc2nnc([C@H](C)NC(=O)OC(C)(C)C)o2)c1C,22%,"14.6 µM [rising, partial curve]",–
NC(=O)c1ccc(NC(=O)COC(=O)C(Cc2ccccc2)NC(=O)c2ccccc2)cc1 (stereo not given),11.8%,"6.51 µM [falling, single point]",–
Cc1ccc(C(=O)NCC(C)(C)N2CCOCC2)s1,-27.6%,"5.8 µM [falling, partial curve]","0.82 µM [falling, full curve, poor fit]"
Cc1ccc(S(=O)(=O)Nc2ccccc2F)cc1C(=O)NCc1ccco1,-4.14%,"5.17 µM [falling, partial curve, poor fit]",–
COC(=O)c1ccc(CN(C)S(=O)(=O)c2ccc(C)cc2)o1,-3.04%,"0.651 µM [falling, single point]","6.51 µM [rising, single point]"
COc1ccccc1-c1cnn2c(N3CCOCC3)cc(C)nc12,24.6%,–,–
CCCNc1cc(=O)n(C)c(=O)n1C,14%,–,"0.00461 µM [rising, full curve, poor fit]"
